# According to PMC10412574:
# Chains of the proteins cited; added tags and fusions are not shown.
# UniProt P60604: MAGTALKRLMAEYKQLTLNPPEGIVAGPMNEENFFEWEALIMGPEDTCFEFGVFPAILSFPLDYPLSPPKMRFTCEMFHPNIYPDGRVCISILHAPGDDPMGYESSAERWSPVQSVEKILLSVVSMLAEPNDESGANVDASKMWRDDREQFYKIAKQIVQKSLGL
# UniProt P22314: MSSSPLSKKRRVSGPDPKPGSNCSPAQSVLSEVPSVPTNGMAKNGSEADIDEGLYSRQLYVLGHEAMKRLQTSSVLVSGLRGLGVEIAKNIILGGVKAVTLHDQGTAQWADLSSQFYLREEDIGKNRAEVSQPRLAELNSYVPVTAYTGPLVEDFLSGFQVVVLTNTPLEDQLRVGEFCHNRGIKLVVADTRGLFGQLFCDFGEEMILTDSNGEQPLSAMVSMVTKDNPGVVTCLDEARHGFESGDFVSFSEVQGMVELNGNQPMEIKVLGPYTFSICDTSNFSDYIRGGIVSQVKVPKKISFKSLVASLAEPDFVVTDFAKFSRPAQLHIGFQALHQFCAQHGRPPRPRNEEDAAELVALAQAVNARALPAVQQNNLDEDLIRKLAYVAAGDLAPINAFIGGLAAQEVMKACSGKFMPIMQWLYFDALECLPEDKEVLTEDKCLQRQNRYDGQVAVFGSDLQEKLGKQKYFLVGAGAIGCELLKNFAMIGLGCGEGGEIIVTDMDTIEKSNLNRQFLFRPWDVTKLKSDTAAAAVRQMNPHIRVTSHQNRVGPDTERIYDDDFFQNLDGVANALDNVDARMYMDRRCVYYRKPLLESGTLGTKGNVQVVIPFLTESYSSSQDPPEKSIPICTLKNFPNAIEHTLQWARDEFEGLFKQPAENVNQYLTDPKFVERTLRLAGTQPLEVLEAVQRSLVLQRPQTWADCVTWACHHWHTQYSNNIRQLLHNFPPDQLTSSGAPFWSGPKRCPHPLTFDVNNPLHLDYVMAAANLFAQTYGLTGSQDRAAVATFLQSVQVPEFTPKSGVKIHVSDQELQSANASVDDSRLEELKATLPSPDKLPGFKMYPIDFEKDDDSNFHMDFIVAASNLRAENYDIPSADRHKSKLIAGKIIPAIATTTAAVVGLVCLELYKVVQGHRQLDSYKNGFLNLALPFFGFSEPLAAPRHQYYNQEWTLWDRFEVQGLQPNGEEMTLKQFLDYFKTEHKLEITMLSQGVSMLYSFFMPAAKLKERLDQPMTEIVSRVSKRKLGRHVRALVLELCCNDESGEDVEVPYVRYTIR
# Results are given in words; binding and its absence hold for the method and conditions named. Binding seen in cells or lysates may run through a third protein. Some results given as binding are weak or reduced against the parent protein; the word gives no strength.
# Target: endogenous UBE2G2 (human (endogenous in 293 T)) (UniProt P60604)
# Experiment: co-IP; endogenous proteins; anti-UBA1 or anti-UBE2G2 IP from total lysates of untransfected cells (293 T, 100 nM AF 3 h or vehicle; HCT116-UBA1(C1039A) cells with or without AF), immunoblot; anti-IgG control
substance,measurement,value
endogenous UBA1 (from UniProt P22314 1-1058) (enzyme),binding,binds
